One substance from publication PMC4891030 can be followed below.

Sequences of proteins named here, by UniProt entry; tags and fusion partners are left off. Residues count along the entry.
UniProt P11021, residues 19-654: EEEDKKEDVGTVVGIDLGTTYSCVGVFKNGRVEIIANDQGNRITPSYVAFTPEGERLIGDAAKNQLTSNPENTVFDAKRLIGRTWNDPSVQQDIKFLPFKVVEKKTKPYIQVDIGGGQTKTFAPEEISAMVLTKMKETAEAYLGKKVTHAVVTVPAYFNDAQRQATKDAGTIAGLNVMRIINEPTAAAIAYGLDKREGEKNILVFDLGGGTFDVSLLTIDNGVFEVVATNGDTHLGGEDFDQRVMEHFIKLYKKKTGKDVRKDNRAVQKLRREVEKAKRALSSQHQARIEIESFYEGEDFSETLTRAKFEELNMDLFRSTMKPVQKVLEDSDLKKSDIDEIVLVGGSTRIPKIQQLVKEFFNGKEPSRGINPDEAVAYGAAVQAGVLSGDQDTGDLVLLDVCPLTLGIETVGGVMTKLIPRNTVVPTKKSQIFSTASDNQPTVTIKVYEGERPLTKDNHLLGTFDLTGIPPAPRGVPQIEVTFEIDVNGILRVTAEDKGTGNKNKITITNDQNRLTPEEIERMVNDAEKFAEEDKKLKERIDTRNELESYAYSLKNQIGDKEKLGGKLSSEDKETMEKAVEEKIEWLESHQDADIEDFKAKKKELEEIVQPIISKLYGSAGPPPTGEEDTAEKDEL

The target in the assay is epidermal growth factor receptor (human (endogenous in H1299)) (UniProt P00533). The assay is described as follows: co-IP; reciprocal co-immunoprecipitation of endogenous EGFR and BIP from lysates of MIIP-HA-overexpressing or control H1299 cells; lysis in 50 mM Tris-HCl pH 7.5, 0.15 M NaCl, 1% Nonidet P-40; overnight with primary antibody, Protein G Plus-Agarose, four washes; blank protein G beads as negative control.

Results are given in words; binding and its absence hold for the method and conditions named. In cells and extracts the contact can be indirect. Some binding calls cover weakened binding; strength is not graded here.

On to BIP (from UniProt P11021 19-654), for which the binding result was “binds”.
